Results deposited as PubChem BioAssay AID1259308 (NCATS, 2017)

Test: 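Knock-downs that increase output of a recombinant reporter protein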 (primary screen)
Cell system: human HEK293 embryonic kidney cells stably expressing firefly luciferase (HEK-CMV-Luc2-Hygro)
Knock-down reagent: single siRNA against human genes, 0.8 pmol siRNA per well
Duration: 72 h
Read-out: 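Reporter luminescence and viable-cell signal on separate replicate plates, given as percent of non-targeting control and median/MAD z-scores, plus per-cell luciferase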
Scale: total luciferase, z-score: higher = more reporter protein produced
Active means: 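Active when the median/MAD z-score for overall luciferase is greater than 3; a gene was taken forward for validation with new siRNAs if at least two of its three siRNAs passed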
Meaning of the calls: active = raised luciferase; inactive = no rise
This is an unselected part of about 59,000 reagents. Of all reagents, about 1,510 (2.6%) are marked active. 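Calls use total luciferase alone and ignore viability, so some active siRNAs may act by altering cell number.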 Unmarked entries are inactive. Reagents against one gene are numbered here. Not all columns of the deposit are shown. Reagent sequences are not shown.

After knock-down of TCFL5 (transcription factor like 5) #1, the record shows total luciferase, z-score -0.277. Silencing of TCFL5 (transcription factor like 5) #2 came out at: total luciferase, z-score 1.21. With knock-down of TCFL5 (transcription factor like 5) #3, the record shows total luciferase, z-score -1.38. Against RASL10A (RAS like family 10 member A) #1, the entry reads total luciferase, z-score -0.904. After knock-down of RASL10A (RAS like family 10 member A) #2, the screen gave total luciferase, z-score -0.039. With knock-down of RASL10A (RAS like family 10 member A) #3, the screen gave total luciferase, z-score 0.574.

SHANK3 (SH3 and multiple ankyrin repeat domains 3) #1 scored total luciferase, z-score -0.0135. For SHANK3 (SH3 and multiple ankyrin repeat domains 3) #2, the values are total luciferase, z-score -1.16. Against SHANK3 (SH3 and multiple ankyrin repeat domains 3) #3, the entry reads total luciferase, z-score 0.53. Silencing of TUBA4A (tubulin alpha 4a) #1 gave: total luciferase, z-score 0.0314. Silencing of TUBA4A (tubulin alpha 4a) #2 came out at: total luciferase, z-score -1.81. Silencing of TUBA4A (tubulin alpha 4a) #3 gave: total luciferase, z-score -0.417.

Copied from the listing for reference:
RASL10A (RAS like family 10 member A) #3 → total luciferase, z-score = 0.574
SHANK3 (SH3 and multiple ankyrin repeat domains 3) #1 → total luciferase, z-score = -0.0135
